# The list shows a part of the results.
# Tests used:
# Test in all cases: glycan array binding signal (z-score within array); higher = stronger binding
# Conditions in all cases: glycan notation: IUPAC condensed, linker removed
# [1] = molecular target: GlcNAc(b1-4)GlcNAc
# In short: (§1)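 The binding signal is a Z-score computed within each array. Data were drawn from 3228 arrays in the Consortium for Functional Glycomics database, restricted to those with a known protein sequence. Scores were averaged over arrays of the same protein sequence at different concentrations or buffers, and over linkers, and negative values can be taken as non-binding.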
# [2] = molecular target: GlcNAc(b1-4)GlcNAc(b1-4)GlcNAc
# In short: as §1
# [3] = molecular target: GlcNAc(b1-4)GlcNAc(b1-4)GlcNAc(b1-4)GlcNAc(b1-4)GlcNAc
# In short: as §1
# [4] = molecular target: GlcNAc(b1-4)GlcNAc(b1-4)GlcNAc(b1-4)GlcNAc(b1-4)GlcNAc(b1-4)GlcNAc
# In short: as §1
# [5] = molecular target: GlcNAc(b1-4)[GlcNAc(b1-6)]GalNAc
# In short: as §1
# [6] = molecular target: GlcNAc(b1-6)Gal(b1-4)GlcNAc
# In short: as §1
# [7] = molecular target: GlcNAc(b1-6)GalNAc
# In short: as §1
# [8] = molecular target: GlcNAc3Prop(b1-4)GlcNAc
# In short: as §1
# [9] = molecular target: GlcNAc6S(b1-3)Gal(b1-4)GlcNAc
# In short: as §1
# [10] = molecular target: Kdn(a2-3)Gal(b1-3)GalNAc
# In short: as §1
# [11] = molecular target: Kdn(a2-3)Gal(b1-3)GlcNAc
# In short: as §1
# [12] = molecular target: Kdn(a2-3)Gal(b1-4)Glc
# In short: as §1
# [13] = molecular target: Kdn(a2-3)Gal(b1-4)GlcNAc
# In short: as §1
# [14] = molecular target: Kdn(a2-3)Gal(b1-4)[Fuc(a1-3)]GlcNAc
# In short: as §1
# [15] = molecular target: Kdn(a2-6)Gal(b1-4)GlcNAc
# In short: as §1
# [16] = molecular target: Man(a1-2)Man(a1-2)Man(a1-3)Man
# In short: as §1
# [17] = molecular target: Man(a1-2)Man(a1-2)Man(a1-6)[Man(a1-3)]Man
# In short: as §1
# [18] = molecular target: Man(a1-2)Man(a1-3)Man
# In short: as §1
# [19] = molecular target: Man(a1-2)Man(a1-3)[Man(a1-2)Man(a1-6)]Man
# In short: as §1
# [20] = molecular target: Man(a1-2)Man(a1-3)[Man(a1-2)Man(a1-6)]Man(a1-6)[Man(a1-2)Man(a1-2)Man(a1-3)]Man
# In short: as §1
# [21] = molecular target: Man(a1-2)Man(a1-3)[Man(a1-2)Man(a1-6)]Man(a1-6)[Man(a1-2)Man(a1-2)Man(a1-3)]Man(b1-4)GlcNAc(b1-4)GlcNAc
# In short: as §1
# [22] = molecular target: Man(a1-2)Man(a1-3)[Man(a1-6)]Man(a1-6)[Man(a1-2)Man(a1-3)]Man(b1-4)GlcNAc(b1-4)GlcNAc
# In short: as §1
# [23] = molecular target: Man(a1-2)Man(a1-6)[Man(a1-3)]Man(a1-6)[Man(a1-2)Man(a1-2)Man(a1-3)]Man
# In short: as §1
# [24] = molecular target: Man(a1-2)Man(a1-6)[Man(a1-3)]Man(a1-6)[Man(a1-2)Man(a1-2)Man(a1-3)]Man(b1-4)GlcNAc(b1-4)GlcNAc
# In short: as §1
# [25] = molecular target: Man(a1-3)[Man(a1-6)]Man
# In short: as §1
# [26] = molecular target: Man(a1-3)[Man(a1-6)]Man(a1-6)[Man(a1-2)Man(a1-3)]Man(b1-4)GlcNAc(b1-4)GlcNAc
# In short: as §1
# [27] = molecular target: Man(a1-3)[Man(a1-6)]Man(a1-6)[Man(a1-3)]Man
# In short: as §1
# [28] = molecular target: Man(a1-3)[Man(a1-6)]Man(a1-6)[Man(a1-3)]Man(b1-4)GlcNAc(b1-4)GlcNAc
# In short: as §1
# [29] = molecular target: Man(a1-3)[Man(a1-6)]Man(b1-4)GlcNAc(b1-4)GlcNAc
# In short: as §1
# [30] = molecular target: Man(a1-3)[Man(a1-6)]Man(b1-4)GlcNAc(b1-4)[Fuc(a1-6)]GlcNAc
# In short: as §1
# [31] = molecular target: Man(a1-6)Man
# In short: as §1
# [32] = molecular target: Man(b1-4)GlcNAc
# In short: as §1
# [33] = molecular target: MurNAc(b1-4)GlcNAc
# In short: as §1
# [34] = molecular target: Neu5Ac(a2-3)Gal
# In short: as §1
# [35] = molecular target: Neu5Ac(a2-3)Gal(b1-3)GalNAc
# In short: as §1
# [36] = molecular target: Neu5Ac(a2-3)Gal(b1-3)GalNAc(b1-3)Gal(a1-4)Gal(b1-4)Glc
# In short: as §1
# [37] = molecular target: Neu5Ac(a2-3)Gal(b1-3)GalNAc(b1-4)[Neu5Ac(a2-3)]Gal(b1-4)Glc
# In short: as §1
# [38] = molecular target: Neu5Ac(a2-3)Gal(b1-3)GalNAc(b1-4)[Neu5Ac(a2-8)Neu5Ac(a2-3)]Gal(b1-4)Glc
# In short: as §1
# [39] = molecular target: Neu5Ac(a2-3)Gal(b1-3)GalNAc6S
# In short: as §1
# [40] = molecular target: Neu5Ac(a2-3)Gal(b1-3)GlcNAc
# In short: as §1
# [41] = molecular target: Neu5Ac(a2-3)Gal(b1-3)GlcNAc(b1-2)Man
# In short: as §1
# [42] = molecular target: Neu5Ac(a2-3)Gal(b1-3)GlcNAc(b1-2)Man(a1-3)[GlcNAc(b1-4)][Neu5Ac(a2-3)Gal(b1-3)GlcNAc(b1-2)Man(a1-6)]Man(b1-4)GlcNAc(b1-4)GlcNAc
# In short: as §1
# [43] = molecular target: Neu5Ac(a2-3)Gal(b1-3)GlcNAc(b1-2)Man(a1-3)[Neu5Ac(a2-3)Gal(b1-3)GlcNAc(b1-2)Man(a1-6)]Man(b1-4)GlcNAc(b1-4)GlcNAc
# In short: as §1
# [44] = molecular target: Neu5Ac(a2-3)Gal(b1-3)GlcNAc(b1-3)Gal(b1-3)GlcNAc
# In short: as §1
# [45] = molecular target: Neu5Ac(a2-3)Gal(b1-3)GlcNAc(b1-3)Gal(b1-4)GlcNAc
# In short: as §1
binder,measurement,setting,value
"Gal 10 (Homo sapiens), Q05315 (protein) MSLLPVPYTEAASLSTGSTVTIKGRPLVCFLNEPYLQVDFHTEMKEESDIVFHFQVCFGRRVVMNSREYGAWKQQVESKNMPFQDGQEFELSISVLPDKYQVMVNGQSSYTFDHRIKPEAVKMVQVWRDISLTKFNVSYLKR",glycan array binding signal (z-score),[1],-0.102
same,glycan array binding signal (z-score),[2],-0.449
same,glycan array binding signal (z-score),[3],-0.206
same,glycan array binding signal (z-score),[4],0.432
same,glycan array binding signal (z-score),[5],-0.956
same,glycan array binding signal (z-score),[6],-0.355
same,glycan array binding signal (z-score),[7],-0.333
same,glycan array binding signal (z-score),[8],0.2
same,glycan array binding signal (z-score),[9],-0.059
same,glycan array binding signal (z-score),[10],0.569
same,glycan array binding signal (z-score),[11],-0.192
same,glycan array binding signal (z-score),[12],-0.657
same,glycan array binding signal (z-score),[13],0.159
same,glycan array binding signal (z-score),[14],-0.151
same,glycan array binding signal (z-score),[15],0.098
same,glycan array binding signal (z-score),[16],2
same,glycan array binding signal (z-score),[17],-0.515
same,glycan array binding signal (z-score),[18],0.88
same,glycan array binding signal (z-score),[19],-0.68
same,glycan array binding signal (z-score),[20],-0.669
same,glycan array binding signal (z-score),[21],0.376
same,glycan array binding signal (z-score),[22],-0.622
same,glycan array binding signal (z-score),[23],0.911
same,glycan array binding signal (z-score),[24],0.15
same,glycan array binding signal (z-score),[25],-0.378
same,glycan array binding signal (z-score),[26],-0.705
same,glycan array binding signal (z-score),[27],-0.048
same,glycan array binding signal (z-score),[28],-1.04
same,glycan array binding signal (z-score),[29],-0.387
same,glycan array binding signal (z-score),[30],0.257
same,glycan array binding signal (z-score),[31],-0.435
same,glycan array binding signal (z-score),[32],-0.064
same,glycan array binding signal (z-score),[33],-0.231
same,glycan array binding signal (z-score),[34],-0.467
same,glycan array binding signal (z-score),[35],-0.079
same,glycan array binding signal (z-score),[36],-0.265
same,glycan array binding signal (z-score),[37],-0.288
same,glycan array binding signal (z-score),[38],0.255
same,glycan array binding signal (z-score),[39],0.057
same,glycan array binding signal (z-score),[40],-0.573
same,glycan array binding signal (z-score),[41],1.03
same,glycan array binding signal (z-score),[42],-0.2
same,glycan array binding signal (z-score),[43],-0.522
same,glycan array binding signal (z-score),[44],0.801
same,glycan array binding signal (z-score),[45],-0.762

# Part of the list above, with bars between the fields.
binder | measurement | setting | value
Gal 10 (Homo sapiens), Q05315 (protein) MSLLPVPYTEAASLSTGSTVTIKGRPLVCFLNEPYLQVDFHTEMKEESDIVFHFQVCFGRRVVMNSREYGAWKQQVESKNMPFQDGQEFELSISVLPDKYQVMVNGQSSYTFDHRIKPEAVKMVQVWRDISLTKFNVSYLKR | glycan array binding signal (z-score) | [33] | -0.231
same | glycan array binding signal (z-score) | [34] | -0.467

# — the supplement of paper PMC8728848
